Assay results as given in publication PMC12811265.
No constants are given. Whether binding was seen depends on the method and setting. In cells and extracts the contact can be indirect. Some results given as binding are weak or reduced against the parent protein; the word gives no strength.

The chains behind the UniProt entries cited, without tags or fusion partners.
UniProt P45974: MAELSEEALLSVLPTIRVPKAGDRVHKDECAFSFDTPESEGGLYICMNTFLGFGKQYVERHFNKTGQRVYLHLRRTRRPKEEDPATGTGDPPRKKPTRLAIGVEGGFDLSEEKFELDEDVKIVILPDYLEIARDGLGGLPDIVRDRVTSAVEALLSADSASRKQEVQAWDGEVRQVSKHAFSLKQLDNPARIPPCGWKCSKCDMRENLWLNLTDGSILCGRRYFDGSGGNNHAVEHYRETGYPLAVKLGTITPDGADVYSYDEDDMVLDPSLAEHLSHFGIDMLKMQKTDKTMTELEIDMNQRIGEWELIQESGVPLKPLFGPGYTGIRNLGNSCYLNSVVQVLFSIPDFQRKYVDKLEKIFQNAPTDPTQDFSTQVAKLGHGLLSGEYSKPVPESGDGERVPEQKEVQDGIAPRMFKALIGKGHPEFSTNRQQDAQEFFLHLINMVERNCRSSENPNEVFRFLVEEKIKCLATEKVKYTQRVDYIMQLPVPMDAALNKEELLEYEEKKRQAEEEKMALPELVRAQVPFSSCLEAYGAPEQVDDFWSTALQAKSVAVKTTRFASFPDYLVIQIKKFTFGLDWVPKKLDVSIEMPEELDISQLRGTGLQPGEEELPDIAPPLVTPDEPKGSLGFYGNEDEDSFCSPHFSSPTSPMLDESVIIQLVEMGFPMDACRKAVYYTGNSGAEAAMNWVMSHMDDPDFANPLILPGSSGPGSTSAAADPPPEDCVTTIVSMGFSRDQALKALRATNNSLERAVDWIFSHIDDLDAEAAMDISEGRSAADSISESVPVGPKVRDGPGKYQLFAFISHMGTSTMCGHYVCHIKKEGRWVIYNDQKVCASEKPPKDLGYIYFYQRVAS

Target: T1, methyltransferase-like 14 (human (endogenous in RA-FLSs)) (UniProt Q9HCE5)
T1 sequence: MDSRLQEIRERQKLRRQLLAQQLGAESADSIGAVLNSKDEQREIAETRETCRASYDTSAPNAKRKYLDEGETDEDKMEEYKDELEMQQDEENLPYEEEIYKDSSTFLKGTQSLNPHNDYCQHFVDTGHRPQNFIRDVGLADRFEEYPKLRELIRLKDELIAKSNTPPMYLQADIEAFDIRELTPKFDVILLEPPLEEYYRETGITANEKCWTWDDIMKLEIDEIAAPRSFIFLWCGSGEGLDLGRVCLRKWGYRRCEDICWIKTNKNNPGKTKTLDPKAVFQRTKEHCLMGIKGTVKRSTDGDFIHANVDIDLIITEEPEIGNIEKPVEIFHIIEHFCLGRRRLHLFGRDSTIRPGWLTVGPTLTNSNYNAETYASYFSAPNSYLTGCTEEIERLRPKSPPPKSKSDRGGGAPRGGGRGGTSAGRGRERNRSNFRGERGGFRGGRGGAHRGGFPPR
Experiment: co-IP; RA-FLS lysates (IP lysis buffer with protease inhibitors) incubated overnight at 4 °C with anti-USP5 antibody, anti-METTL14 antibody or control IgG; protein A/G magnetic beads 2 h at 4 °C; bound proteins analysed by Western blot

## ubiquitin-specific protease 5 (from UniProt P45974 1-858) (enzyme)
  binding: binds
